Laboratory results reported in patent US20240400572A1, “COMPOUNDS AND METHODS FOR TREATING CANCERS THAT ARE MGMT DEFICIENT REGARDLESS OF MMR STATUS” (Yale University, priority 2021, published 2024).
Some entries share one result that the patent states for a list of compounds.

Test system: four isogenic LN229 glioblastoma cell lines (MGMT+/−, MMR+/−)
Format: cell-based
Conditions: LN229 MGMT+ versus MGMT− cells
Procedure: Short-term Cell Viability Assay. Cells were seeded in 96-well plates at 1000 or 2000 cells/well and allowed to adhere at 23° C. for 60 min and then incubated overnight at 37° C. Cells were treated with indicated concentrations of compounds in triplicate for 4-6 days prior to fixation with 3.7% paraformaldehyde and nuclear staining with 1 μg/mL Hoechst 33342 dye. Cells were imaged on a Cytation 3 imaging reader (BioTek) and quantified using CellProfiler software.
Statistical analysis. Statistical analysis was performed using GraphPad Prism software. Data are presented as mean or median±SD or SEM as indicated. For in vitro short-term growth delay experiments, IC50 values were determined from the nonlinear regression equation, [inhibitor] vs normalized response with variable slope. […]
We synthesized the imidazotetrazine 4a (KL-50) and the triazene 4b (KL-85), as vehicles to deliver 2-fluoroethyl diazonium (4c), and a series of related agents to probe structure-activity relationships in tissue culture (FIG. Z1, D and F). […] We evaluated the cytotoxicity of our compounds in short-term cell viability assays against four isogenic LN229 glioblastoma cell lines engineered to be proficient or deficient in MGMT and/or MMR activity, using short hairpin RNAs (shRNAs) targeting MSH2 (referred to as MGMT+/−, MMR+/− cells hereafter; FIG. ZS2A). […]

Compound: NC(=O)c1ncn2c(=O)n(CCCl)nnc12 [MTZ, mitozolomide, reference compound]
- selectivity for MGMT-deficient cells: 4-7 fold
